# Assay results: PubChem BioAssay AID540276 (National Center for Advancing Translational Sciences (NCATS), 2011)
# About 5,400 (1.8%) of roughly 300,000 compounds were called active. The shares of active, inactive and inconclusive entries below differ from those in the screen. Calls come from the whole dose curve; tested in HEK293 cells. Potencies of inconclusive entries are doubtful fits and often do not repeat.
# Assay: qHTS for inhibitors of binding or entry into cells for Marburg Virus
# Details: Marburg virus pseudotyped entry inhibition, cell reporter; activity change, negative = inhibition: at 37.8 µM (top of the series) unless noted
# % is set by controls: 0 for no effect and ±100 for the full control effect; potency is the fitted concentration of half-maximal effect.
Compound,Potency,"activity change, negative = inhibition"
O=C(CCCCCn1c(=O)[nH]c2ccccc2c1=O)NCCCN1CCN(c2ccccc2F)CC1,"inconclusive: 9.2 µM [inhibitor, partial curve, poor fit]",
COc1ccc(NC(=O)NC(=O)c2cc(OCC(F)(F)F)ccc2OCC(F)(F)F)cc1,"inconclusive: 35.5 µM [inhibitor, single point]",
CCOc1cc(N2CCOCC2)c(OCC)cc1NC(=O)c1ccc(OC)cc1,"inconclusive: 22.4 µM [inhibitor, single point]",
COCC(C)N1CCC(n2nccc2NC(=O)c2ccccc2Cl)CC1 (stereo unspecified),,inactive: 10.7%
COc1ccc(NC(=O)COc2ccccc2Cc2ccccc2)cc1S(=O)(=O)N1CCOCC1,,inactive: -27.6%
COC(=O)Cc1ccc(NC(=S)N2CCCC(C)C2)cc1 (stereo unspecified),"inconclusive: 6.51 µM [inhibitor, full curve, poor fit]",
COCCNC(=O)CCCC(=O)NCCOC,"inconclusive: 0.251 µM [activator, full curve, poor fit]",
CCOC(=O)c1cc(-c2ccccc2)n(CC(=O)N2CCCC2)c1C,,inactive: 4.73%
Cc1cc(C)c2c(C)c(C(=O)NCc3ccc(S(N)(=O)=O)cc3)oc2c1,"inconclusive: 10 µM [inhibitor, partial curve, poor fit]",
N#C/C(=C\c1ccco1)C(=O)NCC1CCCO1 (stereo unspecified),"inconclusive: 14.1 µM [activator, partial curve]",
CCOC(=O)c1c(CC(C)C)csc1NC(=O)C(C)C,,inactive: -18.2%
COc1ccc([N+](=O)[O-])c(S(=O)(=O)c2ccc(Cl)cc2)n1,active: 4.47 µM,
Cc1cc(C)c(NC(=O)CCCN2CCN(C)CC2)c(C)c1,"inconclusive: 35.5 µM [activator, single point]",
O=C(CSc1ncnc2c1nnn2Cc1ccc(F)cc1)NC1CCCC1,,inactive: 1.23% [at 46.1 µM]
Cc1ccc(S(=O)(=O)c2cn(CC(=O)Nc3ccc4c(c3)OCO4)c3ccc(C)cc3c2=O)cc1,"inconclusive: 5.62 µM [inhibitor, partial curve, poor fit]",
Cc1cc(C)n(-c2nc(NCC(C)O)c3c4c(sc3n2)COC(C)(C)C4)n1 (stereo unspecified),"inconclusive: 29.1 µM [inhibitor, single point]",
CC(C)C(=O)Nc1ccc(NC(=O)c2cccs2)cn1,,inactive: 13.1% [at 46.1 µM]
C=CCn1c(SCC(=O)NC2(C#N)CCCCC2)nnc1-c1ccncc1,,inactive: 0.501% [at 46.1 µM]
CC(NC(=O)COC(=O)c1nc(Cl)ccc1Cl)c1ccccc1 (stereo unspecified),"inconclusive: 22.4 µM [activator, partial curve, poor fit]",
Cc1ccc(Nc2cc(C)nc3ccccc23)c(C)c1,active: 10 µM,
O=C(NC1=NCCS1)c1cc2ccccc2o1,"inconclusive: 23.1 µM [inhibitor, single point]",
Nc1ccc2c(O)cc(S(=O)(=O)O)cc2c1,"inconclusive: 11.2 µM [inhibitor, partial curve, poor fit]",
COc1ccc(/C=N/NC(=O)CCn2nc(C)cc2C)cc1,,inactive: 3.69% [at 46.1 µM]

# As entered above:
# Value of C=CCn1c(SCC(=O)NC2(C#N)CCCCC2)nnc1-c1ccncc1 under activity change, negative = inhibition: inactive: 0.501% [at 46.1 µM]
# Value of N#C/C(=C\c1ccco1)C(=O)NCC1CCCO1 (stereo unspecified) under Potency: inconclusive: 14.1 µM [activator, partial curve]
# Value of COc1ccc(/C=N/NC(=O)CCn2nc(C)cc2C)cc1 under activity change, negative = inhibition: inactive: 3.69% [at 46.1 µM]

# (list continues)

Compound,Potency,"activity change, negative = inhibition"
CCCCn1c(N)c(N(CC(C)C)C(=O)c2ccc(Br)s2)c(=O)[nH]c1=O,,inactive: 20.6%
CCCSc1ncc(Cl)c(C(=O)Nc2ccc(S(=O)(=O)N3CCCCC3C)cc2)n1 (stereo unspecified),"inconclusive: 35.5 µM [inhibitor, single point]",
CCCC(O)(CCC)C(=O)NN(C(=O)CCl)c1ccccc1,"inconclusive: 29.1 µM [inhibitor, single point]",
CCOc1ccc(NC(=O)CN(C)S(=O)(=O)c2ccc(-c3ccc(=O)[nH]n3)s2)cc1,,inactive: -20.1% [at 46.1 µM]
CCCCNC(=O)COC(=O)c1c2c(nc3ccccc13)/C(=C\c1cccs1)CC2,"inconclusive: 1.26 µM [activator, partial curve, poor fit]",
O=C(c1cc(COc2ccc(F)cc2F)on1)N1CC2C[C@@H]3CC1C[C@H](C2)C3,"inconclusive: 12.6 µM [activator, single point]",
COCCN(CCOC)C(=O)c1ccc(SCc2ccc(C)cc2)c([N+](=O)[O-])c1,,inactive: 28% [at 46.1 µM]
COc1ccc(C(C(=O)NCC2CCCO2)N(C(=O)Cn2nnc3ccccc32)c2ccccc2C(C)=O)cc1OC (stereo unspecified),,inactive: -15.5% [at 46.1 µM]
COc1ccc(-n2cc(CN3CCCC3)c(-c3cccc(F)c3)n2)cc1,"inconclusive: 1 µM [inhibitor, full curve, poor fit]",
CCCOC(=O)/C(C)=N\NC(=O)c1ccco1,"inconclusive: 35.5 µM [activator, single point]",
O=[N+]([O-])c1ccc(O)c(NC(=S)Nc2ccccc2)c1,,inactive: 16.1%
Cn1cc(C(=O)N2CCc3ccccc32)cn1,"inconclusive: 17.8 µM [activator, single point]",
CC(C)CN(C(=O)COC(=O)c1cncc(Br)c1)c1c(N)n(Cc2ccccc2)c(=O)[nH]c1=O,,inactive: -0.742%
CC(Sc1nnc2ccccn12)C(=O)N1CCc2ccccc2C1 (stereo unspecified),,inactive: 4.89% [at 46.1 µM]
Cc1ccc(NC(=O)Cc2c(Cl)cccc2Cl)cc1S(=O)(=O)N(C)C,"inconclusive: 1.26 µM [inhibitor, full curve, poor fit]",
COc1ccc(-c2cc(C(F)(F)F)n3ncc(C(=O)N4CCCCC4c4cccnc4)c3n2)cc1 (stereo unspecified),"inconclusive: 3.16 µM [inhibitor, single point]",
COc1ccc(C/C(C)=N/NC(=S)Nc2ccccc2)cc1,"inconclusive: 18.4 µM [activator, single point]",
COc1ccc(C(=O)N2CCCC(c3ccccc3)C2)cc1 (stereo unspecified),"inconclusive: 35.5 µM [inhibitor, single point]",
CCc1cc2c(=O)c(-c3cnn(-c4ccccc4)c3)coc2c(CN2CCOCC2)c1O,"inconclusive: 2.82 µM [activator, single point]",
COCCCN(C(=S)NC(=O)C12CC3CC(CC(C3)C1)C2)c1c(N)n(Cc2ccccc2)c(=O)[nH]c1=O,,inactive: 1.75%
C=CCn1c(SCC#N)nc2sc(CC)cc2c1=O,,inactive: 23.5% [at 46.1 µM]
CC1CCC(c2csc(NC(=O)/C=C/c3ccco3)c2C(=O)O)CC1 (stereo unspecified),"inconclusive: 11.2 µM [inhibitor, partial curve, poor fit]",
CC(C)OC(=O)C1Cc2ccccc2CN1S(=O)(=O)c1cccs1 (stereo unspecified),"inconclusive: 35.5 µM [inhibitor, single point]",
